Source: the supplement of paper PMC12819154, “High-throughput peptide-centric local stability assay extends protein–ligand identification to membrane proteins, tissues and bacteria” (Nature Structural & Molecular Biology, 2025)
The other results are listed elsewhere or left out. Most values lie at the level of the controls, where differences are scatter.

By UniProt entry, the sequences of proteins in these tests, tags left out. Where a name states a change or a piece, a line headed by the entry shows the natural chain unless it says otherwise.
UniProt Q9P0P0: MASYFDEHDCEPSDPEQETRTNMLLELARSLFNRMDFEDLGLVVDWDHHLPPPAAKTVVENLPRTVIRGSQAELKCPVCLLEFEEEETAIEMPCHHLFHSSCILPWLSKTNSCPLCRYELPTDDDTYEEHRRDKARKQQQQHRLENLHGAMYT
UniProt Q9UGU0: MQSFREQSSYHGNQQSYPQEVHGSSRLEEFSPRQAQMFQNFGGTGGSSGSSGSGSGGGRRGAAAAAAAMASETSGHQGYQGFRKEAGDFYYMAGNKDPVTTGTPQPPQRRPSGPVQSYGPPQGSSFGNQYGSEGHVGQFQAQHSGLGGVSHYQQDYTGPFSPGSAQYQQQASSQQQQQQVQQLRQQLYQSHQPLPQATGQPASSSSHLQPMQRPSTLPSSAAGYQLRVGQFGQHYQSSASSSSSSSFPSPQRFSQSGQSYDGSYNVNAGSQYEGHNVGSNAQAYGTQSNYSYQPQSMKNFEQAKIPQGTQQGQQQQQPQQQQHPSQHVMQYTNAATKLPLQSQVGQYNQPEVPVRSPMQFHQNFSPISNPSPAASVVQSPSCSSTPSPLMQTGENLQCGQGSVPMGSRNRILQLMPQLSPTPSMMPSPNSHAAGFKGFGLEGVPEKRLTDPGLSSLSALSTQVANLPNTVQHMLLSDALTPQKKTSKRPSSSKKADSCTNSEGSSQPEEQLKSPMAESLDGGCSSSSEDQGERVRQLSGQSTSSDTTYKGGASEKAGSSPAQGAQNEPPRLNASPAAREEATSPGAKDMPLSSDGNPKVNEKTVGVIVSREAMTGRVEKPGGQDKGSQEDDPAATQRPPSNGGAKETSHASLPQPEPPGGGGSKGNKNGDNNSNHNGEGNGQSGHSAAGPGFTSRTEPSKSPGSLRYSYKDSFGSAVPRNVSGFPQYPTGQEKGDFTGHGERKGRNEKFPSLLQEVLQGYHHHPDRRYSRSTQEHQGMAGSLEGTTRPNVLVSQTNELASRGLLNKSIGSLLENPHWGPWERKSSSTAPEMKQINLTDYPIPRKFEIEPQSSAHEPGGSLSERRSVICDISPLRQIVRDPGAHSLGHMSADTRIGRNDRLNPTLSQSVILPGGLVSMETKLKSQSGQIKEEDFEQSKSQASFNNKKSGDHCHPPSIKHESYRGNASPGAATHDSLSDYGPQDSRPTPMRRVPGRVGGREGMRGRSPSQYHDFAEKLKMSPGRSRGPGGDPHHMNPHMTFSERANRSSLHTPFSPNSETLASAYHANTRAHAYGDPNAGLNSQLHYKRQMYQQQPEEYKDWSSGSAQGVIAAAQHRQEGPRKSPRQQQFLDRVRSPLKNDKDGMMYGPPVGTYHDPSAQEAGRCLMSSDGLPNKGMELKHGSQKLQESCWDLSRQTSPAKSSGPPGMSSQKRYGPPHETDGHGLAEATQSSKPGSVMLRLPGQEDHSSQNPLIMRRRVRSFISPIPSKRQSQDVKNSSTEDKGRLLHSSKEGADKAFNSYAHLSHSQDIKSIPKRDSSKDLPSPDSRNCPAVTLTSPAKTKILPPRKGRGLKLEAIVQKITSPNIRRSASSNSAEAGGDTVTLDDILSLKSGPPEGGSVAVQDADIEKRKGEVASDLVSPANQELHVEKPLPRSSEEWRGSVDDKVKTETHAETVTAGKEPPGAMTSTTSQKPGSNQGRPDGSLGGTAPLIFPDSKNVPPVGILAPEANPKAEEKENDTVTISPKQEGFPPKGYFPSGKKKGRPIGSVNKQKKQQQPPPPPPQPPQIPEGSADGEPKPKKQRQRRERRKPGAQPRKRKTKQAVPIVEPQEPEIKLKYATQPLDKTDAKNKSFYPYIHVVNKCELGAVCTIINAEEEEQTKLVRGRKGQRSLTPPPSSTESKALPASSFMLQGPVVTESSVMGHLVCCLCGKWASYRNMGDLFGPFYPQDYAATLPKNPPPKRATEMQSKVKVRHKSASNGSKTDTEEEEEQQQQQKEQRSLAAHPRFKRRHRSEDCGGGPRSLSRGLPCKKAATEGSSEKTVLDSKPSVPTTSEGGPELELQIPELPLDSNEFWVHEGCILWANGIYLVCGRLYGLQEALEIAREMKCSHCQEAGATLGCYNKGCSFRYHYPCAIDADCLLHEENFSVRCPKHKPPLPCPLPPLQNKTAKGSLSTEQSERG
UniProt Q9NXX6: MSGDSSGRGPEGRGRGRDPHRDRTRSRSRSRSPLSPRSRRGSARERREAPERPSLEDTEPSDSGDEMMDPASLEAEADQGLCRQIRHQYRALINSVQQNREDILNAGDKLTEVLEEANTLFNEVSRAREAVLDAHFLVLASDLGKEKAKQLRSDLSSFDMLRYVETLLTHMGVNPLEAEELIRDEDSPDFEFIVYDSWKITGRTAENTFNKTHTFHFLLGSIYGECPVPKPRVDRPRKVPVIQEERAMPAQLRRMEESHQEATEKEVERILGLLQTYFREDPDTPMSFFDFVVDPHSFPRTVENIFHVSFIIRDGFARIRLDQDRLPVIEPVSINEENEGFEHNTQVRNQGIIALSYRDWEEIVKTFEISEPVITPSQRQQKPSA
UniProt Q9NYK6: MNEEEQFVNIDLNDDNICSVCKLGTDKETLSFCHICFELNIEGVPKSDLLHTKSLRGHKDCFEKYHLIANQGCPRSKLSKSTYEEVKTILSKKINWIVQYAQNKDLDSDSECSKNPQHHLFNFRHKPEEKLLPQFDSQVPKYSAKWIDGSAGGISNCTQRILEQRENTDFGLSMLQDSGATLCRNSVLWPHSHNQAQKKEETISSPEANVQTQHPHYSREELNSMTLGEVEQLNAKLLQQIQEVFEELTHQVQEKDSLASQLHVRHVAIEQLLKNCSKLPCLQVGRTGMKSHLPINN
UniProt Q9UHB7: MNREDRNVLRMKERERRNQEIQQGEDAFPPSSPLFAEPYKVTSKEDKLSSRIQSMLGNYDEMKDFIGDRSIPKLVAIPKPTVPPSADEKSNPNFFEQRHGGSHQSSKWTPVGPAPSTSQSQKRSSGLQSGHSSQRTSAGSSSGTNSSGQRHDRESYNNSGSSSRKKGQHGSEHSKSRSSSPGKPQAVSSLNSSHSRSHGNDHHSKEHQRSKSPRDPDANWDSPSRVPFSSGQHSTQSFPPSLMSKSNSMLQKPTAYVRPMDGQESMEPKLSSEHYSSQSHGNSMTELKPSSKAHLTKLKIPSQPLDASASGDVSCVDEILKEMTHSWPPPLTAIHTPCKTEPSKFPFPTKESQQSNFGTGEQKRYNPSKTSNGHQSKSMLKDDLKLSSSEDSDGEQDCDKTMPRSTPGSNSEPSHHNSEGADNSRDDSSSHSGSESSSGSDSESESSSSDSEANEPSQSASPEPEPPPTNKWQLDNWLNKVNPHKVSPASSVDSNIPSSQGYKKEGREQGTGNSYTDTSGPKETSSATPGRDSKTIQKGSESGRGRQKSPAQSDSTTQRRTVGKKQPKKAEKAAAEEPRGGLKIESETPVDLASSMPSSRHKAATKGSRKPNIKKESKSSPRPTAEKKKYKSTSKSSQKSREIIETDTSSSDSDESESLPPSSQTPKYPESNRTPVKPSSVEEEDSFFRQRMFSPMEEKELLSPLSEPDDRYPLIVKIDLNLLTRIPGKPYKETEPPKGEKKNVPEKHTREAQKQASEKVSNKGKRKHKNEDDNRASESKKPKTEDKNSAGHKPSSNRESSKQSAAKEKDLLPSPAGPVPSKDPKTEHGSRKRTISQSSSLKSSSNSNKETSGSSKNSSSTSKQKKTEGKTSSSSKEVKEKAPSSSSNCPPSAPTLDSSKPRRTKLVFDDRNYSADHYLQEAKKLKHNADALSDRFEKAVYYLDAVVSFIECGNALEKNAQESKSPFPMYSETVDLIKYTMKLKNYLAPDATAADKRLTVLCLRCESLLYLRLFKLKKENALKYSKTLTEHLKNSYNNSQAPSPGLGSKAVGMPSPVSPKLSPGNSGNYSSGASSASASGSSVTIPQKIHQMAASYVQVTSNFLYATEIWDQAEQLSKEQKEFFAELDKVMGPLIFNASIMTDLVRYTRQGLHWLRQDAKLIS
UniProt Q9NWZ3, whole entry: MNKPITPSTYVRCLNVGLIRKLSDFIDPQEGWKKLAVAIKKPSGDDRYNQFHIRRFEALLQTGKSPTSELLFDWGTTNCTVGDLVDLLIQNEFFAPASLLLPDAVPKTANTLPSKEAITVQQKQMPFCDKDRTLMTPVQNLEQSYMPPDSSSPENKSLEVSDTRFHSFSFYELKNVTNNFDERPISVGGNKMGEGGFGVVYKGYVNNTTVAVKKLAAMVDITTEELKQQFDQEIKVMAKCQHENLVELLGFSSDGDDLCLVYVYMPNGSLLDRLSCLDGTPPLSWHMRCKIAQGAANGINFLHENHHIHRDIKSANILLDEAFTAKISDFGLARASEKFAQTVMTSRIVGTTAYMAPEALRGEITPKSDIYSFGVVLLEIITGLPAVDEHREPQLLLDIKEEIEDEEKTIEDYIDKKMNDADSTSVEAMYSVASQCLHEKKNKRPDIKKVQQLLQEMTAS
UniProt Q9P021, whole entry: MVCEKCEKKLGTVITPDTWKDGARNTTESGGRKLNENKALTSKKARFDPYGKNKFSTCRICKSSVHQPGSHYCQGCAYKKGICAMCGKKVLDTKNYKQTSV
UniProt Q9P258, whole entry: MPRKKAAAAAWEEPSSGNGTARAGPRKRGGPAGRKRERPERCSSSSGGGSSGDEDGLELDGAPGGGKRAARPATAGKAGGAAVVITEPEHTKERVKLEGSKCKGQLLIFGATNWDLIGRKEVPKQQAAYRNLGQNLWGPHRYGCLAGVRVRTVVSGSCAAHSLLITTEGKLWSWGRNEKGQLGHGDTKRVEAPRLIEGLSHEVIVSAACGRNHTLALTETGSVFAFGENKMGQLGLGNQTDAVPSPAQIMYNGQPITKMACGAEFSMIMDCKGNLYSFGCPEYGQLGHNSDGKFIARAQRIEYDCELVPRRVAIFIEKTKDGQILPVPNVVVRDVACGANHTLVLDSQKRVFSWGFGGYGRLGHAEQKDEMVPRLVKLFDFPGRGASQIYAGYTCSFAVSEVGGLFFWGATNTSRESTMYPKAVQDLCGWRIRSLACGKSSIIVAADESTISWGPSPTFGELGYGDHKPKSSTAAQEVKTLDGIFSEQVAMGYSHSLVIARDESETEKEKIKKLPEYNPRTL
UniProt Q9UH65: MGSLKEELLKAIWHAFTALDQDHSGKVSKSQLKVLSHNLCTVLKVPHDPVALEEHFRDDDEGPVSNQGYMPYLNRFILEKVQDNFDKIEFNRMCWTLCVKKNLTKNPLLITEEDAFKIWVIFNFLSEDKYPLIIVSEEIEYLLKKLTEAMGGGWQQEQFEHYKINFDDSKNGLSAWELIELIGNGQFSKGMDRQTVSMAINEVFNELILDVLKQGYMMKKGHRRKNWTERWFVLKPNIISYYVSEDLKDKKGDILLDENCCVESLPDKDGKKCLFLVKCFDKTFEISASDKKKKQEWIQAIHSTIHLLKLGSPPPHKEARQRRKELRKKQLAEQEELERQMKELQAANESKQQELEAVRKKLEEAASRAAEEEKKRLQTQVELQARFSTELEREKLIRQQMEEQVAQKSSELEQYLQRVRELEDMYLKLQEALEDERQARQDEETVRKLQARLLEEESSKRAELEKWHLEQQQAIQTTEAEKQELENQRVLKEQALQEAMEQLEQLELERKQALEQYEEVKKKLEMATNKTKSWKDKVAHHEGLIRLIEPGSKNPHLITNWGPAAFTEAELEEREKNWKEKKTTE
UniProt Q9NYP9: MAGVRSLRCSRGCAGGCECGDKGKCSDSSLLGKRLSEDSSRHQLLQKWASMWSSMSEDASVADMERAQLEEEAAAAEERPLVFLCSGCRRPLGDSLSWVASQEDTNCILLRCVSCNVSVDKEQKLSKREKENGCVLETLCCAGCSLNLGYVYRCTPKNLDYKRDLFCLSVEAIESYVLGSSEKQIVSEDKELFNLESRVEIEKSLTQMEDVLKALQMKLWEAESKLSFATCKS
UniProt Q9NYJ1, whole entry: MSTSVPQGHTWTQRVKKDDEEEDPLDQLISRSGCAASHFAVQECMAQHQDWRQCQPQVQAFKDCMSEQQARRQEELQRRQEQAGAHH
UniProt Q9UG63: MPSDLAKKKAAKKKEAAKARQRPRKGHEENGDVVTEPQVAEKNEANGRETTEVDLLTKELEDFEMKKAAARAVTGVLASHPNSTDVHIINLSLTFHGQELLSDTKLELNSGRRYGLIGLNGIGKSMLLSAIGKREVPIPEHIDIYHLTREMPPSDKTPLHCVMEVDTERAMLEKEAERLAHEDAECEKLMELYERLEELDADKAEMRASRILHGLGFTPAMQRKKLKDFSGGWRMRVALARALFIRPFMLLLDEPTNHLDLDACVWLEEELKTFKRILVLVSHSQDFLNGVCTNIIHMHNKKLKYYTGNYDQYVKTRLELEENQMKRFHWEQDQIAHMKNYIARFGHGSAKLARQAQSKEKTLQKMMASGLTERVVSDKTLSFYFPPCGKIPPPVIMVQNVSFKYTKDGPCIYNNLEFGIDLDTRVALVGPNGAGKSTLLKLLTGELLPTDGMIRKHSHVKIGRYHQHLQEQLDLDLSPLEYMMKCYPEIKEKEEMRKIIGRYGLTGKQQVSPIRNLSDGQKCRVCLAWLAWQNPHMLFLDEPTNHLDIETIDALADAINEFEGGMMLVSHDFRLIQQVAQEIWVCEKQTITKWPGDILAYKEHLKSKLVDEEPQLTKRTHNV

The targets below were run with Cc1nc(Nc2ncc(C(=O)Nc3c(C)cccc3Cl)s2)cc(N2CCN(CCO)CC2)n1 [dasatinib] (assay: log2 fold change of tryptic peptide abundance, ligand vs vehicle (limited proteolysis) (log2 ratio); higher = more trypsin-susceptible (destabilized)). Conditions: ligand concentration: 5 uM; sample: K562 cleared lysate.

Target | log2 fold change
GGA3 (peptide sequence: ELFDQCENKRR, peptide start residue: 250) (UniProt Q9NZ52) | -0.657
UniProt Q9NYL2 (peptide sequence: LLLLEEEDLKDMGIVSK, peptide start residue: 378) | 0.4
DNAJB11 (peptide sequence: CNCRQEMR, peptide start residue: 169) (UniProt Q9UBS4) | 0.233
UXT (peptide sequence: AHIHMLLEGLR, peptide start residue: 133) (UniProt Q9UBK9) | -0.308
UniProt Q9NYU2 (peptide sequence: QLLYDAIK, peptide start residue: 776) | -0.565
RNF181 (peptide sequence: LENLHGAMYT, peptide start residue: 144) (UniProt Q9P0P0) | 0.0582
TXNL4B (peptide sequence: VDYGSPDHTK, peptide start residue: 92) (UniProt Q9NX01) | 0.26
UVRAG (peptide sequence: HHTSSAIPVPK, peptide start residue: 469) (UniProt Q9P2Y5) | -0.585
FBXL17 (peptide sequence: KGAGVPACTPCKQPR, peptide start residue: 200) (UniProt Q9UF56) | 0.0303
UniProt Q9NYV4 (peptide sequence: DSKPIALKEEIVTPK, peptide start residue: 502) | -0.115
ARHGEF12 (peptide sequence: KVEESYTILCQR, peptide start residue: 1519) (UniProt Q9NZN5) | -0.397
TCF20 (peptide sequence: GFGLEGVPEKR, peptide start residue: 437) (UniProt Q9UGU0) | -0.575
PARP2 (peptide sequence: VNNGNTAPEDSSPAKK, peptide start residue: 23) (UniProt Q9UGN5) | 0.977
DNAJB12 (peptide sequence: GYTAEQVAAVKR, peptide start residue: 93) (UniProt Q9NXW2) | 0.203
NSMCE4A (peptide sequence: SGDSSGRGPEGR, peptide start residue: 2) (UniProt Q9NXX6) | -0.526
REV1 (peptide sequence: GKPVAVTSNR, peptide start residue: 441) (UniProt Q9UBZ9) | -0.257
IBTK (peptide sequence: SLDVLSDGVLK, peptide start residue: 911) (UniProt Q9P2D0) | -0.49
UniProt Q9NXE8 (peptide sequence: NSDRNQGLQGPLTAEQK, peptide start residue: 233) | -0.34
EURL (peptide sequence: KINWIVQYAQNK, peptide start residue: 93) (UniProt Q9NYK6) | 0.752

Some values from the list:
log2 fold change, IBTK (peptide sequence: SLDVLSDGVLK, peptide start residue: 911) (UniProt Q9P2D0) is entered as -0.49
log2 fold change, UniProt Q9NXE8 (peptide sequence: NSDRNQGLQGPLTAEQK, peptide start residue: 233) is entered as -0.34

Following part:

Target | log2 fold change
AFF4 (peptide sequence: TEDKNSAGHKPSSNR, peptide start residue: 784) (UniProt Q9UHB7) | -0.4
SDHAF2 (peptide sequence: APDLEYLFEKPR, peptide start residue: 155) (UniProt Q9NX18) | 0.215
IRAK4 (peptide sequence: KLAAMVDITTEELK, peptide start residue: 214) (UniProt Q9NWZ3) | -0.351
CRIPT (peptide sequence: SSVHQPGSHYCQGCAYKK, peptide start residue: 63) (UniProt Q9P021) | 0.717
RCC2 (peptide sequence: IEYDCELVPR, peptide start residue: 301) (UniProt Q9P258) | 0.875
TMEM9 (peptide sequence: SMAAAAASLGGPR, peptide start residue: 137) (UniProt Q9P0T7) | 0.0938
SWAP70 (peptide sequence: DKVAHHEGLIR, peptide start residue: 536) (UniProt Q9UH65) | 1.92
VPS29 (peptide sequence: VVTVGQFK, peptide start residue: 74) (UniProt Q9UBQ0) | 0.201
UniProt Q9NYP9 (peptide sequence: GCAGGCECGDKGK, peptide start residue: 12) | -0.45
UniProt Q9NYJ1 (peptide sequence: VKKDDEEEDPLDQLISR, peptide start residue: 15) | -0.0571
ZNFX1 (peptide sequence: NGHIYVIGDCGGAMER, peptide start residue: 1851) (UniProt Q9P2E3) | 0.133
SACS (peptide sequence: FYTSWNQEATSHK, peptide start residue: 4397) (UniProt Q9NZJ4) | 0.3
THYN1 (peptide sequence: TKTENSGEALAKVEDSNPQK, peptide start residue: 23) (UniProt Q9P016) | 0.154
POLK (peptide sequence: ENVPASSLCEKQDYEAHPK, peptide start residue: 673) (UniProt Q9UBT6) | 0.979
UniProt Q9UBD5 (peptide sequence: IALHTALNNPYYYLK, peptide start residue: 597) | 0.0921
MPP6 (peptide sequence: DTITPQQVFVK, peptide start residue: 211) (UniProt Q9NZW5) | -0.457
ABCF2 (peptide sequence: ILHGLGFTPAMQR, peptide start residue: 211) (UniProt Q9UG63) | -0.298
UniProt Q9P203 (peptide sequence: SDFPLAAPENASTGPAHVR, peptide start residue: 1037) | -0.152
